# Measured values reported in PMC3222648, “Inotropic Action of the Puberty Hormone Kisspeptin in Rat, Mouse and Human: Cardiovascular Distribution and Characteristics of the Kisspeptin Receptor” (PLoS ONE, 2011).
# Assays:
# [1] = cited from earlier work
# [2] = Radioimmunoassay of kisspeptin-LI in human heart
substance,measurement,setting,value
"kisspeptin: Kisspeptin, or KP-54; also used generically for the endogenous peptides and kisspeptin-like immunoreactivity (GTSLSPPPESSGSPQQPGLSAPHSRQIPAPQGAVLVQREKDLPNYNWNSFGLRF; Metastin; UniProt Q15726 68-121, looked up)",increase in plasma concentration in pregnancy,"[1]; above normal levels, pregnancy, ref [48]",10000 fold
same,circulating level,"[1]; human, ref [31]",0.83 ± 0.19 pM
same,kisspeptin-LI level in myocardium,"[2]; left ventricle, control vs DCM vs IHD (P>0.05)",no significant difference
same,kisspeptin-LI level in myocardium,"[2]; right atria, patients with dilated cardiomyopathy vs control (n = 4)",not different
same,kisspeptin-LI level in myocardium,"[2]; right atria, patients with ischaemic heart disease vs control (P<0.05, ANOVA)",significant reduction
